Our source for the binding values is patent US20240052042A1 (Novartis, published 2024).

Protein sequences, listed by entry. Tags and fused reporters are not part of them. Residues count along the entry.
UniProt P02769, residues 25-607: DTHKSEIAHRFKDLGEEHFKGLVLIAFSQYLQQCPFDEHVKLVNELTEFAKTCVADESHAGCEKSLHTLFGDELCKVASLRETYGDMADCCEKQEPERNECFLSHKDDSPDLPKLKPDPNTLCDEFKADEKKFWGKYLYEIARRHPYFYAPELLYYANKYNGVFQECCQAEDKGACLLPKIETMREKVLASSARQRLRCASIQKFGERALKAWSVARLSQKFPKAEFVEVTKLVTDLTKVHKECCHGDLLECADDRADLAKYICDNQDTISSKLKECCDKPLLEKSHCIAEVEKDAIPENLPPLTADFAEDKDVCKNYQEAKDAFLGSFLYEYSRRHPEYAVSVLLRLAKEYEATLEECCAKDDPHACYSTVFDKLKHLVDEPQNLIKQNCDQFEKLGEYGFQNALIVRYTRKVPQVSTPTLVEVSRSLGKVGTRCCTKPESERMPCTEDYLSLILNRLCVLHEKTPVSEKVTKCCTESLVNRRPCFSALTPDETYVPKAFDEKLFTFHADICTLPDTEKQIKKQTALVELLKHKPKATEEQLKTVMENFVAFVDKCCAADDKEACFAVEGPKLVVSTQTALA

Results are given in words; binding and its absence hold for the method and conditions named. Some entries that bind do so weakly or less than the wild type.

The target in one test is BSA (bovine) (UniProt P02769). Put plainly: ELISA, IgG titrated on coated antigen, fluorescence [Cont.].
For test [1], the target named is T1, rNPR1-ANP complex (rat).
T1 sequence: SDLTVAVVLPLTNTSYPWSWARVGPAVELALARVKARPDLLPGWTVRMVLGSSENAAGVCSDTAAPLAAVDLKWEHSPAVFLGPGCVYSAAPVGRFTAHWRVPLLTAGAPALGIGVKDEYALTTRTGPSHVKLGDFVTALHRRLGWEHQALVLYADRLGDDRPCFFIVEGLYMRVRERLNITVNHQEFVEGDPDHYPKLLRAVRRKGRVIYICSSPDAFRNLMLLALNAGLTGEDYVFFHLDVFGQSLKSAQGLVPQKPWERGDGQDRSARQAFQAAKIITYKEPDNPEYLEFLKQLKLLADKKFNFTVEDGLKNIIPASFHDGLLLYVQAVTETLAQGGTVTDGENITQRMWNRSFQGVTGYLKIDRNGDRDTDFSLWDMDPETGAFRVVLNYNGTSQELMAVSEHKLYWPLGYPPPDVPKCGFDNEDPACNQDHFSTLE
T1 sequence (peptide): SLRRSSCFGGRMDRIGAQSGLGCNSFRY
Kind of test: ELISA, IgG titrated on coated antigen with ANP (250 fold molar excess), fluorescence.

Test [2] concerns the target T2, human NPR3 in the presence of ANP (human, UniProt P17342 27-481; P01160 124-151, limits assumed).
T2 construct: also called hNPR3 + 100 nM ANP
T2 sequence (looked up): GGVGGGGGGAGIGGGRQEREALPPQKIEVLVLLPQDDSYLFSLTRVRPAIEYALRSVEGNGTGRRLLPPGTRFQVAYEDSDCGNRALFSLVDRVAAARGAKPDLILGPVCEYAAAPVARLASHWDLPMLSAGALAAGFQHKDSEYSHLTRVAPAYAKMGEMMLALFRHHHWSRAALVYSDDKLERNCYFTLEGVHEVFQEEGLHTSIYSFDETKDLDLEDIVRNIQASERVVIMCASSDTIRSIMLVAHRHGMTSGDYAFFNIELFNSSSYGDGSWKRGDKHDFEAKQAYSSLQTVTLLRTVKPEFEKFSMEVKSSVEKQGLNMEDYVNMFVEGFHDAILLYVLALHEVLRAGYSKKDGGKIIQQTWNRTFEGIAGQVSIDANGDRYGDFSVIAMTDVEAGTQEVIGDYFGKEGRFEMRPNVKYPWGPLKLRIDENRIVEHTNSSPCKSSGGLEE
T2 sequence (peptide, looked up): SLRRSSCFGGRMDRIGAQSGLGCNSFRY
Put plainly: ELISA, IgG titrated on coated antigen with ANP (250 fold molar excess), fluorescence [Cont.].

In test [3] the target is T1, rNPR1-ANP complex (rat). The test is described as above.
Test [4] deals with T3, human NPR3 (counter target) (human, UniProt P17342 27-481, limits assumed).
T3 construct: Pannings used hNPR3-hFc; also called hNPR3; hNPR3-hFc
T3 sequence (looked up): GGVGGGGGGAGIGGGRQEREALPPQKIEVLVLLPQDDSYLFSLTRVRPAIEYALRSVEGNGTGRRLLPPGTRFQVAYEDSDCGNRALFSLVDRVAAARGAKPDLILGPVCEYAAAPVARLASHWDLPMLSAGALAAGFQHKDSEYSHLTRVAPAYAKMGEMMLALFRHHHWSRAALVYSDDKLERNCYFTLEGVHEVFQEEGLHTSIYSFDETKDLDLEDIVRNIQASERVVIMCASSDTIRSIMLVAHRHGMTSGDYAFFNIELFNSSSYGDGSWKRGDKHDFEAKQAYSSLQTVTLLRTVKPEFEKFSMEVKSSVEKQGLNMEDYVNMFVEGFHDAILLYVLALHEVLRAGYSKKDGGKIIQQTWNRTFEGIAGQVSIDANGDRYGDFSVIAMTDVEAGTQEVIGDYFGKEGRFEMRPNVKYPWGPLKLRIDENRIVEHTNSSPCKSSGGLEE
Put plainly: FabCys affinity determination.

The target of test [5] is T3, human NPR3 (counter target). Kind of test: ELISA, IgG titrated on coated antigen, fluorescence [Cont.].

B1: YY05 (IgG format) (antibody, V domains shown)
VH: EVQLVQSGAEVKKPGESLKISCKGSGYSFTSYWISWVRQMPGKGLEWMGIIYPGTSYTRYSPSFQGQVTISADKSISTAYLQWSSLKASDTAMYYCARGAVAGQLGFDHWGQGTLVTVSS
VL: QSVLTQPPSVSGAPGQRVTISCTGSSSNIGAGYDVHWYQQLPGTAPKLLIYGNSNRPSGVPDRFSGSKSGTSASLAITGLQAEDEADYYCQSYYTSSHGPVFGGGTKLTVLG
notes: also called YY05_LALA
In the case of B1, the binding result with BSA (bovine) is “no binding (tested: 1000 nM)”.

B2: YY07 (IgG format) (antibody, V domains shown)
VH: EVQLVQSGAEVKKPGESLKISCKGSGYSFTSYWISWVRQMPGKGLEWMGIIYPGTSYTRYSPSFQGQVTISADKSISTAYLQWSSLKASDTAMYYCARGSLPGLLGFDHWGQGTLVTVSS
VL: QSVLTQPPSVSGAPGQRVTISCTGSSSNIGAGYDVHWYQQLPGTAPKLLIYGNSNRPNGVPDRFSGSKSGTSASLAITGLQAEDEADYYCQSYDSPTSSSVFGGGTKLTVLG
notes: also called YY07_LALA
With B2, in the test with BSA (bovine), the binding result is “no binding (tested: 1000 nM)”.

B3: XX01 (IgG format) (antibody, V domains shown)
VH: EVQLLESGGGLVQPGGSLRLSCAASGFTFNTHYIHWVRQAPGKGLEWVSSISSSGQSTYYADSVKGRFTISRDNSKNTLYLQMNSLRAEDTAVYYCARERGYVYYHMFDPWGQGTLVTVSS
VL: DIVLTQSPATLSLSPGERATLSCRASQSITRNYLAWYQQKPGQAPRLLIYGASSRATGIPARFSGSGSGTDFTLTISSLEPEDFAVYYCQQHSMYPRTFGQGTKVEIK
For B3, the binding entry in the test with rNPR1-ANP complex (rat) [1] is listed as “binds”.

B4: XX08 (antibody, V domains shown)
VH: EVQLLESGGGLVQPGGSLRLSCAASGFTFNTHYIHWVRQAPGKGLEWVSSIGGQGGMTLYADSVKGRFTISRDNSKNTLYLQMNSLRAEDTAVYYCARERGYVYYHMFDPWGQGTLVTVSS
VL: DIVLTQSPATLSLSPGERATLSCRASQSITRNYLAWYQQKPGQAPRLLIYGASSRATGIPARFSGSGSGTDFTLTISSLEPEDFAVYYCQQHSMYPRTFGQGTKVEIKR
notes: x axis reads IgG conc; [nM]; also called XX08 (IgG format)
Regarding B4, the binding entry is listed as “no binding (tested: 200 nM)” in the test with BSA (bovine), “binds” in test [2] and “binds” in the test with rNPR1-ANP complex (rat) [3].

B5: WW01 (FabCys format) (Fab, V domains shown)
VH: QVQLLESGGGLVQPGGSLRLSCAASGFTFNTHYIHWVRQAPGKGLEWVSSISGSGSNTYYADSVKGRFTISRDNSKNTLYLQMNSLRAEDTAVYYCARERGYVYYHMFDPWGQGTLVTVSS
VL: DIVLTQSPATLSLSPGERATLSCRASQSITRNYLAWYQQKPGQAPRLLIYGASSRATGIPARFSGSGSGTDFTLTISSLEPEDFAVYYCQQHSMYPRTFGQGTKVEIK
notes: Monovalent disulfide-bridged FabCys
Take B5: in test [4], the binding result is recorded as “binds”.

B6: WW06 (FabCys format) (Fab, V domains shown)
VH: QVQLVQSGAEVKKPGESLKISCKGSGYSFTSYWIAWVRQMPGKGLEWMGRIDPDNSYTRYSPSFQGQVTISADKSISTAYLQWSSLKASDTAMYYCARWLSPGYALGEQPAGMDHWGQGTLVTVSS
VL: DIVLTQPPSVSGAPGQRVTISCTGSSSNIGAGYAVHWYQQLPGTAPKLLIYSNNKRPSGVPDRFSGSKSGTSASLAITGLQAEDEADYYCQSYDLQKSSRVFGGGTKLTVL
On to B6, for which the binding entry in test [4] was “binds”.

B7: YY02 (IgG format) (antibody, V domains shown)
VH: EVQLVESGGGLVKPGGSLRLSCAASGFTFSSYSMNWVRQAPGKGLEWVSSISSSSSYIYYADSVKGRFTISRDNAKNSLYLQMNSLRAEDTAVYYCARSGYRGVYGFDYWGQGTLVTVSS
VL: DIQMTQSPSSVSASVGDRVTITCRASQGISSWLAWYQQKPGKAPKLLIYAASSLQSGVPSRFSGSGSGTDFTLTISSLQPEDFATYYCQQYYHSPLTFGQGTKVEIKR
notes: IgG format; also called YY02_LALA
For the molecule B7, the binding result is on record as “no binding (tested: 1000 nM)” with BSA (bovine) and “binds” with rNPR1-ANP complex (rat) [3].

B8: YY04 (IgG format) (antibody, V domains shown)
VH: EVQLVESGGGLVKPGGSLRLSCAASGFTFSNYWISWVRQAPGKGLEWVGRIKSKTYGGTTDYAEPVKGRFTISRDDSKNTLYLQMNSLKTEDTAVYYCAREKYSIRARGHGDYGFDVWGQGTLVTVSS
VL: DIQMTQSPSSLSASVGDRVTITCRASQGISNYLAWYQQKPGKVPKLLIYAASTLQSGVPSRFSGSGSGTDFTLTISSLQPEDVATYYCQQGYHAPFTFGQGTKVEIKR
notes: also called YY04_LALA
For B8, the binding result was “no binding (tested: 1000 nM)” with BSA (bovine) and “binds” in the test with rNPR1-ANP complex (rat) [3].

B9: YY03 (IgG format) (antibody, V domains shown)
VH: EVQLLESGGGLVQPGGSLRLSCAASGFTFSSYAISWVRQAPGKGLEWVSAISGSGGSTYYAESVKGRFTISRDNSKNTLYLQMNSLRAEDTAVYYCARESGYVYYLKFDYWGQGTLVTVSS
VL: DIQMTQSPSSLSASVGDRVTITCRASQSISSYLNWYQQKPGKAPKLLIYAASSLQSGVPSRFSGSGSGTDFTLTISSLQPEDFATYYCQQHVRVPITFGQGTKVEIKR
notes: IgG format; also called YY03_LALA
B9: the binding entry with BSA (bovine) is “no binding (tested: 1000 nM)”; in the test with rNPR1-ANP complex (rat) [3], “binds”.

B10: XX03 (IgG format) (antibody, V domains shown)
VH: EVQLLESGGGLVQPGGSLRLSCAASGFTFSSYWMNWVRQAPGKGLEWVSVIESKGNYIFYADSVKGRFTISRDNSKNTLYLQMNSLRAEDTAVYYCARDRYSMIYSYGAGAFDYWGQGTLVTVSS
VL: DIQMTQSPSSLSASVGDRVTITCRASQGISSYLAWYQQKPGKAPKLLIYTASTLQSGVPSRFSGSGSGTDFTLTISSLQPEDFATYYCMQSYEKPRTFGQGTKVEIK
As for B10, the binding result is “no binding (tested: 200 nM)” in the test with BSA (bovine) and “binds” with rNPR1-ANP complex (rat) [3].

B11: XX06 (IgG format) (antibody, V domains shown)
VH: QVQLLESGGGLVQPGGSLRLSCAASGFTFSSYWMNWVRQAPGKGLEWVSAISSDGSYTYYADSVKGRFTISRDNSKNTLYLQMNSLRAEDTAVYYCARDRYSMIYSYGAGAFDYWGQGTLVTVSS
VL: DIQMTQSPSSLSASVGDRVTITCRASQGISSYLAWYQQKPGKAPKLLIYTASTLQSGVPSRFSGSGSGTDFTLTISSLQPEDFATYYCQQTWRKPRTFGQGTKVEIK
In the case of B11, the binding result is “no binding (tested: 200 nM)” with BSA (bovine) and “binds” with rNPR1-ANP complex (rat) [3].

B12: XX04 (IgG format) (antibody, V domains shown)
VH: QVQLLESGGGLVQPGGSLRLSCAASGFTFSSYWMNWVRQAPGKGLEWVSAISSDGSYTYYADSVKGRFTISRDNSKNTLYLQMNSLRAEDTAVYYCARDRYSMIYSYGAGAFDYWGQGTLVTVSS
VL: DIQMTQSPSSLSASVGDRVTITCRASQGISSYLAWYQQKPGKAPKLLIYTASTLQSGVPSRFSGSGSGTDFTLTISSLQPEDFATYYCQQEWVKPRTFGQGTKVEIK
B12: the binding entry (in test [2]; with rNPR1-ANP complex (rat) [3]) was “binds” each time.

B13: XX12 (IgG format) (antibody, V domains shown)
VH: QVQLLESGGGLVQPGGSLRLSCAASGFTFSSYWMNWVRQAPGKGLEWVSAISSDGSYTYYADSVKGRFTISRDNSKNTLYLQMNSLRAEDTAVYYCARDRYSMIYSYGAGAFDYWGQGTLVTVSS
VL: DIQMTQSPSSLSASVGDRVTITCRASQGISSYLAWYQQKPGKAPKLLIYTASTLQSGVPSRFSGSGSGTDFTLTISSLQPEDFATYYCQQIWMAPRTFGQGTKVEIK
Take B13: the binding entry in the test with BSA (bovine) is recorded as “no binding (tested: 200 nM)”; in test [5] it was “binds”; in test [2], “binds”; with rNPR1-ANP complex (rat) [3], “binds”.

B14: XX07 (IgG format) (antibody, V domains shown)
VH: QVQLLESGGGLVQPGGSLRLSCAASGFTFSSYWMNWVRQAPGKGLEWVSAISSDGSYTYYADSVKGRFTISRDNSKNTLYLQMNSLRAEDTAVYYCARDRYSMIYSYGAGAFDYWGQGTLVTVSS
VL: DIQMTQSPSSLSASVGDRVTITCRASQGISSYLAWYQQKPGKAPKLLIYTASTLQSGVPSRFSGSGSGTDFTLTISSLQPEDFATYYCQQIWTVPRTFGQGTKVEIK
On to B14, for which the values for the binding result with BSA (bovine) and with rNPR1-ANP complex (rat) [3] were “no binding (tested: 200 nM)” and “binds”, respectively.

B15: YY06 (IgG format) (antibody, V domains shown)
VH: EVQLLESGGGLVQPGGSLRLSCAASGFTFSSYAISWVRQAPGKGLEWVSAISGSGGSTYYAESVKGRFTISRDNSKNTLYLQMNSLRAEDTAVYYCARPYLGDRRSYGFDHWGQGTLVTVSS
VL: QSALTQPASVSGSPGQSITISCTGTSSDVGSYNLVSWYQQHPGKAPKLMIYEGSKRPSGVSNRFSGSKSGNTASLTISGLQAEDEADYYCSSYGFHIVVVVFGGGTKLTVLG
notes: also called YY06_LALA
For the molecule B15, the binding result in the test with BSA (bovine) is listed as “no binding (tested: 1000 nM)”.
